# At least one structure is not confirmed: it was looked up by name or label, or the drawing left a doubt.
# Tested on: intrinsic muscarinic receptors of HEK-293 cells
# Experiment: Acetylcholine control, Ca2+ imaging in HEK-293 cells
# Assay type: cell-based, human
# Settings: bath-applied, 10 μM
smiles,measurement,value
CC(=O)OCC[N+](C)(C)C [acetylcholine],intracellular Ca2+ response,rise in intracellular Ca^2+
